Source: publication PMC3750028
No constants are given. Whether binding was seen depends on the method and setting. In cells and extracts the contact can be indirect. Some binding calls cover weakened binding; strength is not graded here.

By UniProt entry, the sequences of proteins in these tests, tags left out. Residues count along the entry.
UniProt Q08345, residues 19-913: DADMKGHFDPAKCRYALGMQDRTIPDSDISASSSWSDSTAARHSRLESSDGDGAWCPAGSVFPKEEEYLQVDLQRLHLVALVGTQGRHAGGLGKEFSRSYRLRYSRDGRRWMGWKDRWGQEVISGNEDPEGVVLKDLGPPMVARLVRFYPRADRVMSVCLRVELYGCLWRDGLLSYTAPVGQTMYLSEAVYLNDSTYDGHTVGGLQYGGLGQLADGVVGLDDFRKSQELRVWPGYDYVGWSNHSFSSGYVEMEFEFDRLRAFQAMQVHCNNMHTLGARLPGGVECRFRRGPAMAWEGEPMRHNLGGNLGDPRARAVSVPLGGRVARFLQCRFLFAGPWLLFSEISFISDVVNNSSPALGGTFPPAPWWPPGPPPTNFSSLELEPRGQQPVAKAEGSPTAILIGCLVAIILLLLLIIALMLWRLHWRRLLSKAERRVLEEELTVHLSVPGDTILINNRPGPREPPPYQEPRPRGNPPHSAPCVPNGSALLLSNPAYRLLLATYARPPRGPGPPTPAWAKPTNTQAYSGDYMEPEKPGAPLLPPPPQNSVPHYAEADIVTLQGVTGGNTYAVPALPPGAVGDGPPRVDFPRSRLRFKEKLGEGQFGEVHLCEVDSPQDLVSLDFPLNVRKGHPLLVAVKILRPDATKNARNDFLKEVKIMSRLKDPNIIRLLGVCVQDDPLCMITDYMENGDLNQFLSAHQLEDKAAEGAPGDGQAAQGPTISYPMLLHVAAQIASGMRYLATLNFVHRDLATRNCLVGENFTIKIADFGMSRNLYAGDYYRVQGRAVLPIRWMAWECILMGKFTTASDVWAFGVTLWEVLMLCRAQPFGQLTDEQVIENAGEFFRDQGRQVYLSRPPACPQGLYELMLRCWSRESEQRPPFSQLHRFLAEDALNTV
UniProt P39059, residues 28-1388: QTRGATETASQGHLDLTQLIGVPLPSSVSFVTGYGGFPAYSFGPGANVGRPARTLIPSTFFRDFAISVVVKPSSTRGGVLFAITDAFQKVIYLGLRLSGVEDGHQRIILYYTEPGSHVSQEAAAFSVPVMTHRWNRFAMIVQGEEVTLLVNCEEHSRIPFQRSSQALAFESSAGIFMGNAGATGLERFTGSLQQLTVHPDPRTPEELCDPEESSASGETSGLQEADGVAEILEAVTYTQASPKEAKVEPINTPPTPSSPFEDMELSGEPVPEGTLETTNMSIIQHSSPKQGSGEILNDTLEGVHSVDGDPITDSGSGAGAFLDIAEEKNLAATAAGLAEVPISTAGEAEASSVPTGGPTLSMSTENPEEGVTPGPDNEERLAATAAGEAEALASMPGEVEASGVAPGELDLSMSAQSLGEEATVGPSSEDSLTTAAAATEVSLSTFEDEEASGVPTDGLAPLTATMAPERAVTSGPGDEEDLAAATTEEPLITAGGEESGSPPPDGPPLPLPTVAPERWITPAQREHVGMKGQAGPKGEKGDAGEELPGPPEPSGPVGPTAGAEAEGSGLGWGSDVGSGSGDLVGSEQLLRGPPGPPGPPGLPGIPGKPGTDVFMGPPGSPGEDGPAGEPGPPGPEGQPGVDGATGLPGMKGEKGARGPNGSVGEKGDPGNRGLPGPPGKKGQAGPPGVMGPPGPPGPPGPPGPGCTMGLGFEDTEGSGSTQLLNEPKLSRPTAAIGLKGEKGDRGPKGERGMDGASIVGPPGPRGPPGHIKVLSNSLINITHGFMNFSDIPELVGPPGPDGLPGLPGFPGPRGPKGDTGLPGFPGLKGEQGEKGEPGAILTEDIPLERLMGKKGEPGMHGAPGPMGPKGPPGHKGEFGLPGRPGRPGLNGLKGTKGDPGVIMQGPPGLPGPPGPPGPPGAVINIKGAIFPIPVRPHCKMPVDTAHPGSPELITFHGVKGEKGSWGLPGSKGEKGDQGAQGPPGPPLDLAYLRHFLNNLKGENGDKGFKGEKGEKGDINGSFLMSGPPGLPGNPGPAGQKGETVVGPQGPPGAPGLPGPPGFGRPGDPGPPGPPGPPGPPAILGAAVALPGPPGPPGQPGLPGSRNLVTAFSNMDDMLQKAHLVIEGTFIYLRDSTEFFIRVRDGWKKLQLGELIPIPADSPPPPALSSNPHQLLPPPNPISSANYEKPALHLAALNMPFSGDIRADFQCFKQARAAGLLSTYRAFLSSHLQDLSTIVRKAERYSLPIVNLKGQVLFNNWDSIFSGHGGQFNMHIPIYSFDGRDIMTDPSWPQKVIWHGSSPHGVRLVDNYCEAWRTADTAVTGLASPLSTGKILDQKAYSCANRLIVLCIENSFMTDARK

Legend:
[1] = target: Discoidin domain receptor 1 (DDR1), endogenous in BxPC-3 cells (human (endogenous in BxPC-3)) (UniProt Q08345); experiment: co-IP; IP of DDR1 with DDR1 antibody and protein G-plus beads from lysates (RIPA pH 8.0 or NET buffer) of BxPC-3 vector clone BxVC3 and COLXV clone Bx15.14; western blots probed for COLXV, DDR1 and E-Cad
[2] = target: N-terminal FLAG-epitope tagged COLXV (FCOLXV), stably expressed in BxPC-3 cells (human) (UniProt P39059); experiment: co-IP; IP of FLAG-tagged COLXV with M2 anti-FLAG agarose beads from lysate of BxPC-3 clone BxF15.3; western blots probed for DDR1 and E-Cad; also after transfection of DDR1 siRNA, E-Cad siRNA or scrambled siRNA
[3] = target: N-terminal FLAG-epitope tagged COLXV (FCOLXV), stably expressed in S2-013 cells (human) (UniProt P39059); experiment: co-IP; IP of FLAG-tagged COLXV with M2 anti-FLAG antibody from S2-013 clone S2.F15.7; western blots probed with anti-DDR1 and anti-E-Cad

Collagen XV (human COLXV cDNA construct, untagged), stably expressed in BxPC-3 cells (from UniProt P39059 28-1388)
binding [1]: binds weakly

Discoidin domain receptor 1 (DDR1), endogenous in BxPC-3 cells (from UniProt Q08345 19-913)
binding [2]: binds

Discoidin domain receptor 1 (DDR1), endogenous in S2-013 cells (from UniProt Q08345 19-913)
binding [3]: binds
